Experimental data reported in patent publication US20090111753A1, “Nogo-A Polypeptide Fragments, Variant Nogo Receptor-1 Polypeptides, and Uses Thereof” (Yale University, priority 2004, published 2009).
Residue numbers refer to the chain shown, from its start. Numbers in names are those of the source. These are yes or no findings as the source states them, for the method shown. Some binding calls cover weakened binding; strength is not graded here.

How the values were obtained:
Assay in all cases: AP-ligand binding, COS-7
[1] = target: T1, human NgR1 alanine mutant 108 (human) (UniProt Q9BZR6)
T1 sequence: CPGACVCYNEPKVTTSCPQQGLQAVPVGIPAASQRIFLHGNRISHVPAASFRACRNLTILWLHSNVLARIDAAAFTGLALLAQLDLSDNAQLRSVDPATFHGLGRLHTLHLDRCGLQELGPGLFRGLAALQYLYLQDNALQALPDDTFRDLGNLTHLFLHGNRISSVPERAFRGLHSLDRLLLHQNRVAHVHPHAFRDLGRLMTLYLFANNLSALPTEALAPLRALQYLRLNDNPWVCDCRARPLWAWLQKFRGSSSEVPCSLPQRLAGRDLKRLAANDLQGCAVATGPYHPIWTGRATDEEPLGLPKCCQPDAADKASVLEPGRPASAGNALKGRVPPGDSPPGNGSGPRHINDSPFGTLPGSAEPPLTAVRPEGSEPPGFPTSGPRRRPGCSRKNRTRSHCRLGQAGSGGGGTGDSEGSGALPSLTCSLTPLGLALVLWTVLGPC

[2] = target: T2, human NgR1 alanine mutant 127, 176 (human) (UniProt Q9BZR6)
T2 sequence: T1 sequence with A82E, H101A, D150A

[3] = target: T3, human NgR1 alanine mutant 179 (human) (UniProt Q9BZR6)
T3 sequence: T1 sequence with A82E, N153A

[4] = target: T4, human NgR1 alanine mutant 250 (human) (UniProt Q9BZR6)
T4 sequence: T1 sequence with A82E, R224A

[5] = target: T5, human NgR1 alanine mutant 63, 65 (human) (UniProt Q9BZR6)
T5 sequence: T1 sequence with F37A, H39A, A82E

[6] = target: T6, human NgR1 alanine mutant 87, 89 (human) (UniProt Q9BZR6)
T6 sequence: T1 sequence with W61A, H63A, A82E

Measured: binding

B1: AP-Nogo-66 (ligand, UniProt Q9NQC3 1055-1120, looked up)
chain: RIYKGVIQAIQKSDEGHPFRAYLESEVAISEELVQKYSNSALGHVNCTIKELRRLFLVDDLVDSLK
notes: domain: Nogo-66; construct described elsewhere (Fournier 2001); also called AP-Ng66; Ng66; not shown: alkaline phosphatase (AP); construct described elsewhere
binds: all assays above

B2: AP-fused Amino-Nogo fragment B4C (a.a. 950-1018) (ligand)
chain: LLPPDVSALATQAEIESIVKPKVLVKEAEKKLPSDTEKEDRSPSAIFSAELSKTSVVDLLYWRDIKKTG
notes: also called AmNg B4C; AP-B4C; not shown: alkaline phosphatase (AP), vector pcAP6
binds: all assays above
